The values that follow come from the supplement of paper PMC6658780.

Counter-ions that a name gives are not always drawn. ± gives the standard deviation of the averaged measurements. The list shows a part of the results. Repeats in this data set agree poorly, so a single value says little.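 The A. baumannii clinical isolates were selected for resistance to the partner antibiotic; the screen seeks drugs that restore its effect. Background from coloured compounds is removed by subtracting the start-of-incubation reading.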

The test system of the first assay is Acinetobacter baumannii WP-487. In words: percent growth inhibition of drug alone vs DMSO control; higher = more growth inhibition. The settings on record: antibiotic (0.125x MIC): none (0.1% DMSO); 7 µM. The method, then: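 Prestwick drugs tested at 20 uM and 7 uM with an antibiotic at 0.125x MIC (16 mg/L when MIC >128 mg/L) in cation-adjusted Mueller-Hinton broth, 384-well plates, duplicate runs on different days. Percent growth inhibition was computed from OD600 (24 h minus 0 h) relative to DMSO-only wells. Drug + 0.1% DMSO (no antibiotic) wells are also given. Only hits (max corrected inhibition > mean + 3SD) are listed. A. baumannii: NCTC-13301 was used for MEM/CIP/GEN/TGC and WP-487 for colistin. Duplicates with colistin are strongly discordant (run 2 near 100% for most drugs).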
Take `C#Cc1cccc(Nc2ncnc3cc(OCCOC)c(OCCOC)cc23)c1` [Erlotinib]: the “percent growth inhibition of drug alone” value turned out to be 4.71 ± 3.5%.

As to `CSc1ccc2c(c1)N(CCC1CCCCN1C)c1ccccc1S2` (stereo not given) [Thioridazine hydrochloride], the “percent growth inhibition of drug alone” value amounted to 8.35 ± 3.5%.

For the molecule `CN(C(=O)CN(CCO)CC(=O)N(C)C(C)(C)Cc1ccccc1)C(C)(C)Cc1ccccc1` [Oxethazaine], the “percent growth inhibition of drug alone” value was -0.85 ± 1.5%.

On to `COC(=O)C1=C(C#N)NC(C)=C(C(=O)OC(C)C)C1c1cccc([N+](=O)[O-])c1` (stereo not given) [Nilvadipine], for which the “percent growth inhibition of drug alone” value was -0.629 ± 6.7%.

In the case of `O=C(c1ccc(OCCN2CCCCC2)cc1)c1c(-c2ccc(O)cc2)sc2cc(O)ccc12` [Raloxifene hydrochloride], the “percent growth inhibition of drug alone” value is -0.99 ± 6.1%.

As to `CCCCc1cc2ccccc2c(OCCN(C)C)n1` [Dimethisoquin hydrochloride], the “percent growth inhibition of drug alone” value was 0.337 ± 8.5%.

As to `Cc1ccnc(NS(=O)(=O)c2ccc(N)cc2)n1` [Sulfamerazine], the “percent growth inhibition of drug alone” value turned out to be 47.8 ± 57%.

For `Cc1cc(/C=C/c2ccc3cc(N(C)C)ccc3[n+]2C)c(C)n1-c1ccccc1` [Pyrvinium pamoate], the “percent growth inhibition of drug alone” value turned out to be 5.79 ± 3.1%.

For the molecule `CC(C)(C)C(=O)OCOC(=O)[C@@H]1N2C(=O)[C@@H](/N=C/N3CCCCCC3)[C@H]2SC1(C)C` [Pivmecillinam hydrochloride], the “percent growth inhibition of drug alone” value came out at 38.8 ± 39%.

Take `COC(=O)[C@H]1[C@H]2C[C@@H]3c4[nH]c5cc(OC)ccc5c4CCN3C[C@H]2C[C@@H](OC(=O)c2cc(OC)c(OC)c(OC)c2)[C@@H]1OC` [Reserpine]: the “percent growth inhibition of drug alone” value is 4.46 ± 1.7%.

Regarding `COc1nc(C)nc(Cl)c1NC1=NCCN1` [Moxonidine], the “percent growth inhibition of drug alone” value was determined as 0.173 ± 7%.

Regarding `CC(=O)O[C@H]1C[C@@]2(C)[C@@H](C[C@@H](O)[C@H]3[C@@]4(C)CC[C@@H](O)[C@@H](C)[C@@H]4CC[C@@]32C)/C1=C(\CCC=C(C)C)C(=O)O` [Fusidic acid sodium salt], the “percent growth inhibition of drug alone” value amounted to 1.55 ± 5.9%.

For the molecule `Cc1cccc(CN2CCN(C(c3ccccc3)c3ccc(Cl)cc3)CC2)c1` (stereo not given) [Meclozine dihydrochloride], the “percent growth inhibition of drug alone” value was 0.34 ± 9.2%.

For `CCOC(=O)OC(C)OC(=O)[C@@H]1N2C(=O)[C@@H](NC(=O)[C@H](N)c3ccccc3)[C@H]2SC1(C)C` (stereo not given in full) [Bacampicillin hydrochloride], the “percent growth inhibition of drug alone” value was 5.58 ± 4.4%.

Consider `CN[C@H]1CC[C@@H](c2ccc(Cl)c(Cl)c2)c2ccccc21` [Sertraline], for which the “percent growth inhibition of drug alone” value is 3.51 ± 2%.

Regarding `Cc1cccc(C)c1NC(=O)C(C)N` (stereo not given) [Tocainide hydrochloride], the “percent growth inhibition of drug alone” value stood at 7.67 ± 3.5%.

Consider `CN(C)CCCN1c2ccccc2Sc2ccc(C(F)(F)F)cc21` [Triflupromazine hydrochloride], for which the “percent growth inhibition of drug alone” value was 5.7 ± 0.79%.

On to `CC(C)(O)c1ccccc1CC[C@@H](SCC1(CC(=O)O)CC1)c1cccc(/C=C/c2ccc3ccc(Cl)cc3n2)c1` [Montelukast], for which the “percent growth inhibition of drug alone” value is -3.85 ± 5.8%.

For `Clc1ccc(C(Cn2ccnc2)OCc2c(Cl)cccc2Cl)c(Cl)c1` (stereo not given) [Isoconazole], the “percent growth inhibition of drug alone” value came out at 2.26 ± 0.6%.

For `CCN(CC)C(=S)SSC(=S)N(CC)CC` [Disulfiram], the “percent growth inhibition of drug alone” value came out at 7.17 ± 5.3%.

The assay is the same for the next values; noted with them: antibiotic (0.125x MIC): none (0.1% DMSO); 20 µM.
`C#Cc1cccc(Nc2ncnc3cc(OCCOC)c(OCCOC)cc23)c1` [Erlotinib]: the “percent growth inhibition of drug alone” value is -0.044 ± 3%.

Turning to `CSc1ccc2c(c1)N(CCC1CCCCN1C)c1ccccc1S2` (stereo not given) [Thioridazine hydrochloride], the “percent growth inhibition of drug alone” value came out at 4.22 ± 4.2%.

Take `CN(C(=O)CN(CCO)CC(=O)N(C)C(C)(C)Cc1ccccc1)C(C)(C)Cc1ccccc1` [Oxethazaine]: the “percent growth inhibition of drug alone” value was 35.5 ± 52%.

As to `COC(=O)C1=C(C#N)NC(C)=C(C(=O)OC(C)C)C1c1cccc([N+](=O)[O-])c1` (stereo not given) [Nilvadipine], the “percent growth inhibition of drug alone” value was -3.5 ± 1.3%.

As to `O=C(c1ccc(OCCN2CCCCC2)cc1)c1c(-c2ccc(O)cc2)sc2cc(O)ccc12` [Raloxifene hydrochloride], the “percent growth inhibition of drug alone” value was found to be 17.5 ± 22%.

Regarding `CCCCc1cc2ccccc2c(OCCN(C)C)n1` [Dimethisoquin hydrochloride], the “percent growth inhibition of drug alone” value amounted to 5.4 ± 6.9%.

Regarding `Cc1ccnc(NS(=O)(=O)c2ccc(N)cc2)n1` [Sulfamerazine], the “percent growth inhibition of drug alone” value was 60.7 ± 53%.

Regarding `Cc1cc(/C=C/c2ccc3cc(N(C)C)ccc3[n+]2C)c(C)n1-c1ccccc1` [Pyrvinium pamoate], the “percent growth inhibition of drug alone” value is 8.84 ± 11%.

Take `CC(C)(C)C(=O)OCOC(=O)[C@@H]1N2C(=O)[C@@H](/N=C/N3CCCCCC3)[C@H]2SC1(C)C` [Pivmecillinam hydrochloride]: the “percent growth inhibition of drug alone” value was determined as 46.4 ± 52%.

For the molecule `COC(=O)[C@H]1[C@H]2C[C@@H]3c4[nH]c5cc(OC)ccc5c4CCN3C[C@H]2C[C@@H](OC(=O)c2cc(OC)c(OC)c(OC)c2)[C@@H]1OC` [Reserpine], the “percent growth inhibition of drug alone” value amounted to 1.66 ± 6%.

`COc1nc(C)nc(Cl)c1NC1=NCCN1` [Moxonidine]: the “percent growth inhibition of drug alone” value was -2.62 ± 1.4%.

Consider `CC(=O)O[C@H]1C[C@@]2(C)[C@@H](C[C@@H](O)[C@H]3[C@@]4(C)CC[C@@H](O)[C@@H](C)[C@@H]4CC[C@@]32C)/C1=C(\CCC=C(C)C)C(=O)O` [Fusidic acid sodium salt], for which the “percent growth inhibition of drug alone” value was -1.43 ± 3.2%.

For `Cc1cccc(CN2CCN(C(c3ccccc3)c3ccc(Cl)cc3)CC2)c1` (stereo not given) [Meclozine dihydrochloride], the “percent growth inhibition of drug alone” value was found to be 4.44 ± 4.6%.

Take `CCOC(=O)OC(C)OC(=O)[C@@H]1N2C(=O)[C@@H](NC(=O)[C@H](N)c3ccccc3)[C@H]2SC1(C)C` (stereo not given in full) [Bacampicillin hydrochloride]: the “percent growth inhibition of drug alone” value is 3.36 ± 2.6%.

For the molecule `CN[C@H]1CC[C@@H](c2ccc(Cl)c(Cl)c2)c2ccccc21` [Sertraline], the “percent growth inhibition of drug alone” value stood at 3.8 ± 0.37%.

Consider `Cc1cccc(C)c1NC(=O)C(C)N` (stereo not given) [Tocainide hydrochloride], for which the “percent growth inhibition of drug alone” value was found to be 5.58 ± 12%.

With `CN(C)CCCN1c2ccccc2Sc2ccc(C(F)(F)F)cc21` [Triflupromazine hydrochloride], the “percent growth inhibition of drug alone” value is -0.389 ± 2.3%.

`CC(C)(O)c1ccccc1CC[C@@H](SCC1(CC(=O)O)CC1)c1cccc(/C=C/c2ccc3ccc(Cl)cc3n2)c1` [Montelukast]: the “percent growth inhibition of drug alone” value is -2.94 ± 0.36%.

`Clc1ccc(C(Cn2ccnc2)OCc2c(Cl)cccc2Cl)c(Cl)c1` (stereo not given) [Isoconazole]: the “percent growth inhibition of drug alone” value turned out to be 19.9 ± 27%.

For the molecule `CCN(CC)C(=S)SSC(=S)N(CC)CC` [Disulfiram], the “percent growth inhibition of drug alone” value was determined as 54 ± 81%.
